# The list shows a part of the results. These are further read-outs of the screen, such as a control signal, another cell line or another target. No call is given for them. Compounds called inactive in the main read-out are mostly missing here. The note in brackets gives the kind of curve behind each potency; many fits are weak.
# Experiment: qHTS Assay to Find Inhibitors of Chronic Active B-Cell Receptor Signaling
# Settings: ABC-DLBCL IkBa-CBG/CBR reporter, luminescence ratio (green luciferase fused to IkBa over red control in TMD8 lymphoma cells), 4 h
# How it was run: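 TMD8 human ABC-DLBCL cells with doxycycline-inducible IκBα–green luciferase fusion and unfused red luciferase, in 0.5% FBS medium; compounds up to 46 uM, 4 h at 37C. Green/red luminescence ratio, filter-overlap corrected, fitted to concentration-response curves.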
# [1] = measured here: CBR red luminescence, cell number
# [2] = measured here: IkBa-CBG green luminescence
SMILES,AC50 [1],AC50 [2]
Cc1cc2ccccn2c1C(=O)Nc1ccc(Cl)cc1,"35.5 µM [falling, single point]",
C[C@@]12C(=O)Nc3cc(F)ccc3C(=O)N1[C@H]1c3ccccc3OC[C@@H]1[C@@H]2c1ccccc1,"1.16 µM [falling, full curve]",
CCOc1ccc(NC(=O)C2CC(=O)NC(N3CCc4ccccc43)=N2)cc1 (stereo unspecified),"1.84 µM [rising, partial curve, poor fit]",
CC1(C)ON(C2CCCCC2)[C@H]2c3nc4ccccc4n3C[C@H]21,"12.6 µM [falling, partial curve]",
CC(C)n1c(=S)[nH]c2ccccc2c1=O,"35.5 µM [falling, single point]","22.4 µM [falling, single point]"
COc1cc(C(O)c2nc3ccccc3s2)cc(OC)c1OC (stereo unspecified),,"14.1 µM [falling, partial curve, poor fit]"
CCCOc1cccc(C(=O)N/N=C/c2coc3ccccc3c2=O)c1,"2.24 µM [falling, partial curve, poor fit]",
CCN1CCN(CC(=O)Nc2cccc(C)c2C)C(=O)C1=O,"0.517 µM [rising, partial curve, poor fit]",
CCOC(=O)c1c(NC(=O)CSc2nc3ccccc3[nH]2)sc2c1CC(C)(C)NC2(C)C,"32.6 µM [falling, single point]",
CC(=O)Cn1cnc2sc(-c3ccccc3)cc2c1=O,"11.6 µM [falling, partial curve]",
O=C(O)c1cccc(NC(=O)c2ccc(N3C(=O)c4ccc(C(=O)Nc5cccc(C(=O)O)c5)cc4C3=O)cc2)c1,"1.26 µM [falling, full curve, poor fit]",
O=C(Nc1ccc(F)cc1)C(Sc1nc2ccccc2[nH]1)c1ccccc1 (stereo unspecified),"1.03 µM [rising, partial curve, poor fit]",
COc1ccc(NC(=O)C#Cc2ccccc2)cc1,"14.1 µM [falling, single point]",
C=CCn1c(NC(=O)c2ccccc2Cl)c(C#N)c2nc3ccccc3nc21,"25.1 µM [rising, single point]","22.4 µM [falling, single point]"
Cc1ccnc(NC(=O)COc2ccc3c(c2)CCC3)c1,"6.51 µM [falling, full curve]",
O=C(Nc1ccc2sccc2c1)c1ccc(Cl)s1,"25.9 µM [falling, partial curve, poor fit]",
O=C(NCCc1c[nH]c2ccccc12)c1ccc2c(c1)OCO2,"3.55 µM [falling, partial curve, poor fit]",
C/C(=N\NC(=O)c1ccc(NS(=O)(=O)c2cccs2)cc1)c1ccccc1,"16.4 µM [falling, partial curve]",
O=C(Nc1ccccc1C(=O)O)c1ccc2ccccc2n1,"0.891 µM [falling, full curve]",
COc1ccc(CN2CCN(Cc3ccc(C)cc3)CC2)c(OC)c1,"17.8 µM [rising, partial curve, poor fit]",
COc1ccc(S(=O)(=O)N(C)CC(=O)NCc2ccco2)cc1OC,"35.5 µM [rising, single point]",

SMILES,AC50 [1],AC50 [2]
c1ccc(COc2cccc(CNCc3ccccn3)c2)cc1,"0.398 µM [rising, partial curve, poor fit]",
O=C1NCC(O)=C1C=NCCO,"1.3 µM [rising, partial curve, poor fit]",
CC1(C)C([N+](=O)[O-])C(c2ccc(Cl)cc2)NC(c2ccc(Cl)cc2)C1[N+](=O)[O-] (stereo unspecified),,"20.6 µM [rising, partial curve, poor fit]"
COc1ccc(-c2ncc(CN3CCN(CCC(C)C)C(CCO)C3)cn2)cc1 (stereo unspecified),"3.16 µM [rising, single point]",
CCOC(=O)c1c(C=O)c(C)n(Cc2ccc(Cl)cc2)c1C,,"11.6 µM [falling, partial curve, poor fit]"
Oc1ccccc1N1CCN(CC(O)COCc2ccccc2Cl)CC1 (stereo unspecified),"4.47 µM [rising, partial curve, poor fit]",
CCOc1ccc(-c2nc(-c3ccccc3C)no2)cc1,"6.51 µM [falling, single point]",
CC(=O)c1cc(OC(=O)c2ccncc2)ccc1OC(=O)c1ccncc1,"6.51 µM [falling, single point]",
CCOc1ccc(CNC(=O)CCS(=O)(=O)Cc2ccccc2C)cc1OC,"20 µM [rising, single point]",
CSc1nnc(N2C(=O)C(O)=C(C(=O)c3ccco3)C2c2cccc(Cl)c2)s1 (stereo unspecified),"2.24 µM [falling, full curve, poor fit]",
O=C(C1CCCC1)N1CCN=C1SCc1cccc([N+](=O)[O-])c1,"25.1 µM [falling, single point]",
CNC(=S)NNC(=O)c1cc(C(C)(C)C)nn1Cc1ccc(F)cc1,"31.6 µM [rising, single point]","35.5 µM [falling, single point]"
CN(C)/C=C/C(=O)c1ccc2noc(-c3ccc(F)cc3)c2c1,"22.4 µM [falling, single point]",
Nc1c(Cl)c(Cl)nc(C(=O)OCC(=O)N2CCCC2=O)c1Cl,"6.51 µM [rising, full curve]",
COc1cc(CNC2CCCC2)cc(Cl)c1OCc1ccc(F)cc1,"23.1 µM [falling, partial curve]","16.4 µM [rising, partial curve, poor fit]"
O=C(NC1CC1)c1cc2cc3ccccc3nc2s1,"20 µM [falling, single point]",
COc1ccccc1S(=O)(=O)N1CCn2cccc2C1C (stereo unspecified),"2.91 µM [falling, full curve]",
CC(C)NC(=S)N/N=C/C1=CCC2CC1C2(C)C (stereo unspecified),"29.1 µM [falling, single point]",
CC(C)OC(=O)/C(C#N)=C/c1c[nH]c2ccccc12,"0.206 µM [rising, full curve]",
CC(C)c1nc(CNC(=O)c2cc(COc3c(F)cccc3F)on2)cs1,"11.2 µM [falling, partial curve]","11.2 µM [rising, partial curve, poor fit]"

# Quoted at random: 2 records from the list.
SMILES,AC50 [1],AC50 [2]
Oc1ccccc1N1CCN(CC(O)COCc2ccccc2Cl)CC1 (stereo unspecified),"4.47 µM [rising, partial curve, poor fit]",
CC(C)NC(=S)N/N=C/C1=CCC2CC1C2(C)C (stereo unspecified),"29.1 µM [falling, single point]",

# Reference: PubChem BioAssay AID493014 (National Center for Advancing Translational Sciences (NCATS), 2011)
